Experimental data as given in US20070207946A1 (priority 2001, published 2007).

Legend:
peptide synthesis = conditions: coupling step, TFA salt
[1] = general procedure: Fmoc solid-phase peptide synthesis; Pre-loaded Fmoc-Yaa-Wang resin (0.57 mmol/g); TBTU/DIEA; conditions: late stage modification step, TFA salt

Substance: Boc-Glu(Gly3)-Thia
- step yield (peptide synthesis): 49%

Substance: Boc-Glu(Gly5)-Thia
- step yield (peptide synthesis): 86%

Substance: H-Glu(Gly3)-Thia *TFA
- step yield [1]: 94%

Substance: H-Glu(Gly5)-Thia *TFA
- step yield [1]: 98%
